Data published in patent US20140287916A1, “PESTICIDAL COMPOUNDS” (SYNGENTA PARTICIPATIONS AG, priority 2011, published 2014).
Some results were stated once for a whole list of compounds, not compound by compound.

Assays:
Meloidogyne spp. = Meloidogyne spp. (root-knot nematode) contact activity, preventive, pouch test; assay type: in vivo; conditions: test solutions at 200 ppm on cucumber cv. Toshka seed in pouch; 3000 eggs; twelve days; number of galls per root system
M. incognita = test: Meloidogyne spp. (root-knot nematode) contact activity, preventive, drench test; assay type: in vivo; conditions: 5 ml WP10 suspension at 20 ppm, drench on potted cucumber cv. Toshka; 3000 eggs; fourteen days; Zeck's gall index

| SMILES | reduction of galling compared to the untreated control (Meloidogyne spp.) [%] | reduction of galling compared to the untreated control (M. incognita) [%] |
| --- | --- | --- |
| O=C(NCC1(c2nc(C3CC3)cs2)CC1)c1ccccc1C(F)(F)F [A.10, N-[[1-(4-cyclopropylthiazol-2-yl)cyclopropyl]methyl]-2-(trifluoromethyl)benzamide] | ≥ 75 | – |
| COc1cnc(C2(CNC(=O)c3ccccc3C(F)(F)F)CC2)cn1 [A.26, N-[[1-(5-methoxypyrazin-2-yl)cyclopropyl]methyl]-2-(trifluoromethyl)benzamide] | – | ≥ 75 |
